Test [1] deals with T1, ZNF202 (bait form not given) (human) (UniProt O95125).
T1 sequence (looked up): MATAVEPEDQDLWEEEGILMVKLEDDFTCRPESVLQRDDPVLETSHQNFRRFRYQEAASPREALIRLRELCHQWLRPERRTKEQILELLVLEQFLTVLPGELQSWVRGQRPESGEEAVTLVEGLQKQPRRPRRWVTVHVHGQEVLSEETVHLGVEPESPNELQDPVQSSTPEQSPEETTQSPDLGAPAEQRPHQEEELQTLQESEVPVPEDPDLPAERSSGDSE
Nature of the test: yeast two-hybrid (bait fragment not given).

The chains behind the UniProt entries cited, without tags or fusion partners. Where a name states a change or a piece, a line headed by the entry shows the natural chain unless it says otherwise.
UniProt P17040: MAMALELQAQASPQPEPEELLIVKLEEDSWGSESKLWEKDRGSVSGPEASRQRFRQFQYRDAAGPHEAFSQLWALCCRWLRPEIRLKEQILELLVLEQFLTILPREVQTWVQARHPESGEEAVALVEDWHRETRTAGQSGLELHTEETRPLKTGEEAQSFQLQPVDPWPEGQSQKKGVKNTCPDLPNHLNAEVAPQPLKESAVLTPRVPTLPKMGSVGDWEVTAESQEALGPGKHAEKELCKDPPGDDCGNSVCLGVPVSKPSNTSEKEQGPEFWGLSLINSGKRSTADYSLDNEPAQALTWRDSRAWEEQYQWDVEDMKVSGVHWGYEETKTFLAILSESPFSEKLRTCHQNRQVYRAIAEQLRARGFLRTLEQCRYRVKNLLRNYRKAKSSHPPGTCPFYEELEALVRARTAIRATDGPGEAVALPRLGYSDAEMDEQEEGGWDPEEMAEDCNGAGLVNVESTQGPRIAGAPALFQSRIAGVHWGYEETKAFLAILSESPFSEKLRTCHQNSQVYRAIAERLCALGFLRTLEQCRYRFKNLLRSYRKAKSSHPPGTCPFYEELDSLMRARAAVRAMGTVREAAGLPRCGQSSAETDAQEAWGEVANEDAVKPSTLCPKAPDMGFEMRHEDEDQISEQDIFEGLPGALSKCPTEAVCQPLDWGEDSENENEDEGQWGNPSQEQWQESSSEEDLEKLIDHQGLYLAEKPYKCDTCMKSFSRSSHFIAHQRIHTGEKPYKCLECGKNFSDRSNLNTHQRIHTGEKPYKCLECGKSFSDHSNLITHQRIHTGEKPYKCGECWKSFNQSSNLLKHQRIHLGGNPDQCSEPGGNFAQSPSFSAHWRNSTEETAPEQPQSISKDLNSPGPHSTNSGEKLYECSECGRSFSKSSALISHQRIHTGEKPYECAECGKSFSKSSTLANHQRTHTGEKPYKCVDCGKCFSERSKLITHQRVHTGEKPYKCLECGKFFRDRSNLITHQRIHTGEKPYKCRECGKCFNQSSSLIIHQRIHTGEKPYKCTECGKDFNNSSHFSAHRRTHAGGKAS

Test [2] concerns the target T1, ZNF202 (bait form not given) (human). Nature of the test: yeast two-hybrid (bait fragment not given). The source holds these as a separate data set.

Read-outs that look alike come from different tables or passages of the source. These are yes or no findings as the source states them, for the method shown. Some entries that bind do so weakly or less than the wild type.

With “fragment of PN1851 of SEQ ID NO:13 (from UniProt P17040 14-369)”, the binding result in test [1] is “binds”.

B1: fragment of PN7745 of SEQ ID NO:26 (protein)
chain: NAADAESFRQRFRWFCYSEVAGPRKALSQLWELCNQWLRPDIHTKEQILELLVFEQFLTILPGEIRIWVKSQHPESSEEVVTLIEDLTQILEEKDPVSEDSTVSQEENSKEDKMVTVCPNTESCESAL
In the case of B1, in test [2], the binding entry was “binds”.

The values are drawn from US7297515 (MYRIAD GENETICS, dated 2007).
